{"source": "patent US8735364B2", "about": "“Antisense modulation of apolipoprotein B expression” (Genzyme Corporation, priority 2001, dated 2014)", "key": {"[1]": {"test_system": "mouse apolipoprotein B mRNA", "assay": "Inhibition of mouse apolipoprotein B mRNA levels in primary hepatocytes, quantitative real-time PCR", "type": "cell-based", "set-up": "concentration or dose not given beside the values", "conditions": "averages from two experiments", "description": "Primary mouse hepatocytes were prepared from CD-1 mice purchased from Charles River Labs (Wilmington, Mass.) and were routinely cultured in Hepatoyte Attachment Media (Gibco) supplemented with 10% Fetal Bovine Serum (Gibco/Life Technologies, Gaithersburg, Md.), 250 nM dexamethasone (Sigma), and 10 nM bovine insulin (Sigma). Cells were seeded into 96-well plates (Falcon-Primaria #3872) at a density of 10000 cells/well for use in RT-PCR analysis.\n(§1) When cells reached 80% confluency, they were treated with oligonucleotide. For cells grown in 96-well plates, wells were washed once with 200 μL OPTI-MEM™-1 reduced-serum medium (Gibco BRL) and then treated with 130 μL of OPTI-MEM™-1 containing 3.75 μg/mL LIPOFECTIN™ (Gibco BRL) and the desired concentration of oligonucleotide. After 4-7 hours of treatment, the medium was replaced with fresh medium. Cells were harvested 16-24 hours after oligonucleotide treatment.\n(§2) Quantitation of apolipoprotein B mRNA levels was determined by real-time quantitative PCR using the ABI PRISM™ 7700 Sequence Detection System (PE-Applied Biosystems, Foster City, Calif.) according to manufacturer's instructions. This is a closed-tube, non-gel-based, fluorescence detection system which allows high-throughput quantitation of polymerase chain reaction (PCR) products in real-time. As opposed to standard PCR, in which amplification products are quantitated after the PCR is completed, products in real-time quantitative PCR are quantitated as they accumulate. This is accomplished by including in the PCR reaction an oligonucleotide probe that anneals specifically between the forward and reverse PCR primers, and contains two fluorescent dyes. A reporter dye (e.g., JOE, FAM, or VIC, obtained from either Operon Technologies Inc., Alameda, Calif. or PE-Applied Biosystems, Foster City, Calif.) is attached to the 5′ end of the probe and a quencher dye (e.g., TAMRA, obtained from either Operon Technologies Inc., Alameda, Calif. or PE-Applied Biosystems, Foster City, Calif.) is attached to the 3′ end of the probe. When the probe and dyes are intact, reporter dye emission is quenched by the proximity of the 3′ quencher dye. During amplification, annealing of the probe to the target sequence creates a substrate that can be cleaved by the 5′-exonuclease activity of Taq polymerase. […] With each cycle, additional reporter dye molecules are cleaved from their respective probes, and the fluorescence intensity is monitored at regular intervals by laser optics built into the ABI PRISM™ 7700 Sequence Detection System. In each assay, a series of parallel reactions containing serial dilutions of mRNA from untreated control samples generates a standard curve that is used to quantitate the percent inhibition after antisense oligonucleotide treatment of test samples.\n(§3) PCR reagents were obtained from PE-Applied Biosystems, Foster City, Calif. RT-PCR reactions were carried out by adding 25 μL PCR cocktail (1× TAQMAN™ buffer A, 5.5 mM MgCl2, 300 μM each of DATP, dCTP and dGTP, 600 μM of dUTP, 100 nM each of forward primer, reverse primer, and probe, 20 Units RNAse inhibitor, 1.25 Units AMPLITAQ GOLD™, and 12.5 Units MuLV reverse transcriptase) to 96 well plates containing 25 μL total RNA solution. The RT reaction was carried out by incubation for 30 minutes at 48° C. Following a 10 minute incubation at 95° C. to activate the AMPLITAQ GOLD™, 40 cycles of a two-step PCR protocol were carried out: 95° C. for 15 seconds (denaturation) followed by 60° C. for 1.5 minutes (annealing/extension).\n(§4) Gene target quantities obtained by real time RT-PCR are normalized using either the expression level of GAPDH, a gene whose expression is constant, or by quantifying total RNA using RiboGreen™ (Molecular Probes, Inc. Eugene, Oreg.). GAPDH expression is quantified by real time RT-PCR, by being run simultaneously with the target, multiplexing, or separately. Total RNA is quantified using RiboGreen™ RNA quantification reagent from Molecular Probes. […]"}, "[2]": {"test_system": "human apolipoprotein B mRNA", "assay": "Inhibition of human apolipoprotein B mRNA levels in HepG2 cells, quantitative real-time PCR", "type": "cell-based", "set-up": "concentration or dose not given beside the values", "conditions": "averages from two experiments", "description": "The human hepatoblastoma cell line HepG2 was obtained from the American Type Culture Collection (Manassas, Va.). HepG2 cells were routinely cultured in Eagle's MEM supplemented with 10% fetal calf serum, non-essential amino acids, and 1 mM sodium pyruvate (Gibco/Life Technologies, Gaithersburg, Md.). Cells were routinely passaged by trypsinization and dilution when they reached 90% confluence. Cells were seeded into 96-well plates (Falcon-Primaria #3872) at a density of 7000 cells/well for use in RT-PCR analysis.\nas §1, §2, §3\nas §4, with “separately.” for “separately. Total RNA is quantified using RiboGreen™ RNA quantification reagent from Molecular Probes.”"}}, "note": "Some entries share one result that the patent states for a list of compounds. Oligonucleotides are written 5' to 3', each unit as a sugar letter and its base; * is a phosphorothioate linkage, no mark a phosphodiester; rarer units and linkages stand in square brackets, end groups in braces. Plain capitals give the bases only. e = 2'-O-(2-methoxyethyl) (MOE); [5mC] = 5-methylcytosine; d = 2'-deoxy (DNA)"}
{"sequence": "ACAACTGGGATAGTGTAGCC (antisense eA*e[5mC]*eA*eA*e[5mC]*dT*dG*dG*dG*dA*dT*dA*dG*dT*dG*eT*eA*eG*e[5mC]*e[5mC]) [ISIS 147494, 2′-MOE gapmer phosphorothioate oligonucleotide to mouse apolipoprotein B]", "values": [{"measurement": "%INHIB of mouse apolipoprotein B mRNA levels", "setting": "[1]", "value": "at least 50%"}]}
{"sequence": "ACCGAGAAGGGCACTCAGCC (antisense eA*e[5mC]*e[5mC]*eG*eA*dG*dA*dA*dG*dG*dG*d[5mC]*dA*d[5mC]*dT*e[5mC]*eA*eG*e[5mC]*e[5mC]) [ISIS 147781, 2′-MOE gapmer phosphorothioate oligonucleotide to human apolipoprotein B]", "values": [{"measurement": "%INHIB of human apolipoprotein B mRNA levels", "setting": "[2]", "value": "at least 30%"}]}
{"sequence": "AGAAGCTGCCTCTTCTTCCC (eA*eG*eA*eA*eG*d[5mC]*dT*dG*d[5mC]*d[5mC]*dT*d[5mC]*dT*dT*d[5mC]*eT*eT*e[5mC]*e[5mC]*e[5mC]; antisense) [ISIS 147825, 2′-MOE gapmer phosphorothioate oligonucleotide to human apolipoprotein B]", "values": [{"measurement": "%INHIB of human apolipoprotein B mRNA levels", "setting": "[2]", "value": "at least 30%"}]}
{"sequence": "ATGTGGTAACGAGCCCGAAG (eA*eT*eG*eT*eG*dG*dT*dA*dA*d[5mC]*dG*dA*dG*d[5mC]*d[5mC]*e[5mC]*eG*eA*eA*eG; antisense) [ISIS 147806, 2′-MOE gapmer phosphorothioate oligonucleotide to human apolipoprotein B]", "values": [{"measurement": "%INHIB of human apolipoprotein B mRNA levels", "setting": "[2]", "value": "at least 30%"}]}
{"sequence": "ATTGGCTTCATTGGCAACAC (antisense eA*eT*eT*eG*eG*d[5mC]*dT*dT*d[5mC]*dA*dT*dT*dG*dG*d[5mC]*eA*eA*e[5mC]*eA*e[5mC]) [ISIS 147507, 2′-MOE gapmer phosphorothioate oligonucleotide to mouse apolipoprotein B]", "values": [{"measurement": "%INHIB of mouse apolipoprotein B mRNA levels", "setting": "[1]", "value": "at least 50%"}]}
{"sequence": "CAGACCCGACTCGTGGAAGA (e[5mC]*eA*eG*eA*e[5mC]*d[5mC]*d[5mC]*dG*dA*d[5mC]*dT*d[5mC]*dG*dT*dG*eG*eA*eA*eG*eA; antisense) [ISIS 147801, 2′-MOE gapmer phosphorothioate oligonucleotide to human apolipoprotein B]", "values": [{"measurement": "%INHIB of human apolipoprotein B mRNA levels", "setting": "[2]", "value": "at least 30%"}]}
{"sequence": "CAGCGCCAGCAGCGCCAGCA (antisense e[5mC]*eA*eG*e[5mC]*eG*d[5mC]*d[5mC]*dA*dG*d[5mC]*dA*dG*d[5mC]*dG*d[5mC]*e[5mC]*eA*eG*e[5mC]*eA) [ISIS 147784, 2′-MOE gapmer phosphorothioate oligonucleotide to human apolipoprotein B]", "values": [{"measurement": "%INHIB of human apolipoprotein B mRNA levels", "setting": "[2]", "value": "at least 30%"}]}
{"sequence": "CATCAGACGTGATGTTCCCT (antisense e[5mC]*eA*eT*e[5mC]*eA*dG*dA*d[5mC]*dG*dT*dG*dA*dT*dG*dT*eT*e[5mC]*e[5mC]*e[5mC]*eT) [ISIS 147773, 2′-MOE gapmer phosphorothioate oligonucleotide to mouse apolipoprotein B]", "values": [{"measurement": "%INHIB of mouse apolipoprotein B mRNA levels", "setting": "[1]", "value": "at least 50%"}]}
{"sequence": "CCCAATAAGATTTATAACAA (e[5mC]*e[5mC]*e[5mC]*eA*eA*dT*dA*dA*dG*dA*dT*dT*dT*dA*dT*eA*eA*e[5mC]*eA*eA; antisense) [ISIS 147814, 2′-MOE gapmer phosphorothioate oligonucleotide to human apolipoprotein B]", "values": [{"measurement": "%INHIB of human apolipoprotein B mRNA levels", "setting": "[2]", "value": "at least 30%"}]}
{"sequence": "CCCAGTGATAGCTCTGTGAG (e[5mC]*e[5mC]*e[5mC]*eA*eG*dT*dG*dA*dT*dA*dG*d[5mC]*dT*d[5mC]*dT*eG*eT*eG*eA*eG; antisense) [ISIS 147809, 2′-MOE gapmer phosphorothioate oligonucleotide to human apolipoprotein B]", "values": [{"measurement": "%INHIB of human apolipoprotein B mRNA levels", "setting": "[2]", "value": "at least 30%"}]}
{"sequence": "CCGCAGGTCCCGGTGGGAAT (antisense e[5mC]*e[5mC]*eG*e[5mC]*eA*dG*dG*dT*d[5mC]*d[5mC]*d[5mC]*dG*dG*dT*dG*eG*eG*eA*eA*eT) [ISIS 147780, 2′-MOE gapmer phosphorothioate oligonucleotide to human apolipoprotein B]", "values": [{"measurement": "%INHIB of human apolipoprotein B mRNA levels", "setting": "[2]", "value": "at least 30%"}]}
{"sequence": "CTTGAATCAGCAGTCCCAGG (antisense e[5mC]*eT*eT*eG*eA*dA*dT*d[5mC]*dA*dG*d[5mC]*dA*dG*dT*d[5mC]*e[5mC]*e[5mC]*eA*eG*eG) [ISIS 147786, 2′-MOE gapmer phosphorothioate oligonucleotide to human apolipoprotein B]", "values": [{"measurement": "%INHIB of human apolipoprotein B mRNA levels", "setting": "[2]", "value": "at least 30%"}]}
{"sequence": "GAACACATAGCCGAATGCCG (eG*eA*eA*e[5mC]*eA*d[5mC]*dA*dT*dA*dG*d[5mC]*d[5mC]*dG*dA*dA*eT*eG*e[5mC]*e[5mC]*eG; antisense) [ISIS 147820, 2′-MOE gapmer phosphorothioate oligonucleotide to human apolipoprotein B]", "values": [{"measurement": "%INHIB of human apolipoprotein B mRNA levels", "setting": "[2]", "value": "at least 30%"}]}
{"sequence": "GCCTCCGCCTCGCGGCCCTG [ISIS 147782]", "values": [{"measurement": "%INHIB of human apolipoprotein B mRNA levels", "setting": "[2]", "value": "at least 30%"}]}
{"sequence": "GTAATCTTCATCCCCAGTGC (eG*eT*eA*eA*eT*d[5mC]*dT*dT*d[5mC]*dA*dT*d[5mC]*d[5mC]*d[5mC]*d[5mC]*eA*eG*eT*eG*e[5mC]; antisense) [ISIS 147794, 2′-MOE gapmer phosphorothioate oligonucleotide to human apolipoprotein B]", "values": [{"measurement": "%INHIB of human apolipoprotein B mRNA levels", "setting": "[2]", "value": "at least 30%"}]}
{"sequence": "TATATCCCAGGTTTCCCCGG (eT*eA*eT*eA*eT*d[5mC]*d[5mC]*d[5mC]*dA*dG*dG*dT*dT*dT*d[5mC]*e[5mC]*e[5mC]*e[5mC]*eG*eG; antisense) [ISIS 147829, 2′-MOE gapmer phosphorothioate oligonucleotide to human apolipoprotein B]", "values": [{"measurement": "%INHIB of human apolipoprotein B mRNA levels", "setting": "[2]", "value": "at least 30%"}]}
{"sequence": "TCAGGGTGAGCCCTGTGTGT (eT*e[5mC]*eA*eG*eG*dG*dT*dG*dA*dG*d[5mC]*d[5mC]*d[5mC]*dT*dG*eT*eG*eT*eG*eT; antisense) [ISIS 147826, 2′-MOE gapmer phosphorothioate oligonucleotide to human apolipoprotein B]", "values": [{"measurement": "%INHIB of human apolipoprotein B mRNA levels", "setting": "[2]", "value": "at least 30%"}]}
{"sequence": "TCATACCTTTAGCCCAATCT [ISIS 147816]", "values": [{"measurement": "%INHIB of human apolipoprotein B mRNA levels", "setting": "[2]", "value": "at least 30%"}]}
{"sequence": "TGGCCTACCAGAGACAGGTA (eT*eG*eG*e[5mC]*e[5mC]*dT*dA*d[5mC]*d[5mC]*dA*dG*dA*dG*dA*d[5mC]*eA*eG*eG*eT*eA; antisense) [ISIS 147815, 2′-MOE gapmer phosphorothioate oligonucleotide to human apolipoprotein B]", "values": [{"measurement": "%INHIB of human apolipoprotein B mRNA levels", "setting": "[2]", "value": "at least 30%"}]}
{"sequence": "TGTGCTACCATCCCATACTT (antisense eT*eG*eT*eG*e[5mC]*dT*dA*d[5mC]*d[5mC]*dA*dT*d[5mC]*d[5mC]*d[5mC]*dA*eT*eA*e[5mC]*eT*eT) [ISIS 147790, 2′-MOE gapmer phosphorothioate oligonucleotide to human apolipoprotein B]", "values": [{"measurement": "%INHIB of human apolipoprotein B mRNA levels", "setting": "[2]", "value": "at least 30%"}]}
{"sequence": "TTTCTGTTGCCACATTGCCC (antisense eT*eT*eT*e[5mC]*eT*dG*dT*dT*dG*d[5mC]*d[5mC]*dA*d[5mC]*dA*dT*eT*eG*e[5mC]*e[5mC]*e[5mC]) [ISIS 147788, 2′-MOE gapmer phosphorothioate oligonucleotide to human apolipoprotein B]", "values": [{"measurement": "%INHIB of human apolipoprotein B mRNA levels", "setting": "[2]", "value": "at least 30%"}]}
